Assay results published in PubChem BioAssay (NCATS).
Values joined by “and” are separate entries in the source; they are usually repeats but may differ in a detail not shown here. Equal entries are not always repeated. Some of the results follow. Shown are side measurements of this screen, not its main read-out; they come without a call. Compounds called inactive in the main read-out are mostly missing here. Words in brackets tell the shape of the fitted curve; partial curves, single points and poor fits give uncertain potencies.

Experiment: qHTS Assay for Inhibitors of PDE-IV (AID 607)
Settings: HEK293 ACTOne CNG channel cells, membrane potential fluorescence; measured here: parental cell counter-screen
How it was run: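 Live HEK293 cells with a modified cyclic nucleotide-gated (CNG) channel report intracellular cAMP via membrane-potential dye fluorescence (ex 535/em 590 nm). Endogenous PDE-IV was targeted. Compounds were tested at up to 22.9 uM final; RO 20-1724 100 uM served as control.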
For `Cc1ccc(CNC(=O)[C@H](C)[C@@H]2C[C@@]2(C)[C@@H](NC(=O)OCc2ccccc2)c2ccccc2)c(F)c1F`, the AC50 was 12.6 µM [rising, single point].
With `CN(C)Cc1ccccc1-c1nc(N(C)Cc2ccco2)c2ccccc2n1` the AC50 was 12.6 µM [rising, single point].
In the case of `O=c1c(CCc2ccccc2)nc2cnc(N3CCNCC3)nc2n1C1CC1`, the AC50 was 15.8 µM [rising, single point].
For `O=C(O)CC[P+](c1ccccc1)(c1ccccc1)c1ccccc1`, the AC50 was 2.51 µM [rising, single point].
With `COC(=O)[C@@]1(Cc2ccc(OC)cc2)[C@H]2c3cc(C(=O)N4CCCC4)n(Cc4ccc(OC(F)(F)F)cc4)c3C[C@H]2CN1C(=O)c1ccccc1` the AC50 was 2.51 µM [rising, single point].
For `CC(=O)ON(C(C)=O)S(=O)(=O)c1ccc(Cl)cc1`, the AC50 was 15.8 µM [rising, single point].
For `CCCC[C@@H]1C[C@H]1C(NC(=O)c1cccs1)c1ccc(C(F)(F)F)cc1` (some centres not stated), the AC50 was 12.6 µM [rising, partial curve].
For `O=C(c1csnn1)N1CCC[C@@]2(CCN(Cc3cc(C(F)(F)F)cc(C(F)(F)F)c3)C2)C1`, the AC50 was 0.631 µM [rising, partial curve].
With `C[C@@H](C(=O)O)c1ccc(-c2ccccc2)c(F)c1` the AC50 was 3.98 µM [rising, partial curve] and 3.98 µM [rising, full curve].
For `O=C(O)CCC/C=C\C[C@@H]1CO[C@H](C(F)(F)F)O[C@@H]1c1ccccc1O`, the AC50 was 15.8 µM [rising, partial curve].
In the case of `C[C@@H](CN(C)C)CN1c2ccccc2CCc2ccccc21`, the AC50 was 5.01 µM [rising, partial curve, poor fit].
With `CCCCCN(CCCCC)C(=O)[C@H](CCC(=O)O)NC(=O)c1ccc(Cl)c(Cl)c1` the AC50 was 10 µM [rising, single point].
In the case of `CCC/C=C(\CCC)C(NC(=O)c1ccccc1)c1ccc(C(=O)OC)cc1` (configuration not stated), the AC50 was 6.31 µM [rising, partial curve].
With `COc1ccc(CNc2ncnc3ccc(-c4cccc(NS(C)(=O)=O)c4)cc23)c(OC)c1` the AC50 was 10 µM [rising, partial curve].
In the case of `CCC/C=C(\CCC)C(NS(=O)(=O)c1ccc(Cl)cc1)c1ccccc1` (configuration not stated), the AC50 was 2.51 µM [rising, full curve, poor fit].
For `CC(=O)N1CCC[C@@]2(CCN(c3ncccn3)C2)C1`, the AC50 was 0.0794 µM [rising, single point].
With `COc1cccc(-c2cc(NCc3cccc(C)c3)ncn2)c1` the AC50 was 12.6 µM [rising, single point].
With `CC(C)(C)c1cc(Br)c(O)c(CN(Cc2cc(C(C)(C)C)cc(Br)c2O)C2CCCCC2)c1` the AC50 was 2.51 µM [rising, single point].
With `CC(C)COC[C@H](CN(Cc1ccccc1)c1ccccc1)N1CCCC1` the AC50 was 5.01 µM [rising, partial curve].
In the case of `CCc1c2c(nc3c(C(C)C)cccc13)-c1cccc(=O)n1C2`, the AC50 was 10 µM [rising, single point].
In the case of `COc1ccccc1CNc1nc(-c2ccccc2CN(C)C)nc2ccccc12`, the AC50 was 10 µM [rising, partial curve].
With `COC(=O)[C@H](C)[C@@H]1C[C@@]1(C)[C@@H](NC(=O)OCc1ccccc1)c1ccccc1` the AC50 was 15.8 µM [rising, single point].
In the case of `C=C[C@@]1(C)CC(=O)[C@@]2(O)[C@@]3(C)[C@H](O)CCC(C)(C)[C@@H]3[C@H](O)[C@H](OC(C)=O)[C@]2(C)O1`, the AC50 was 3.98 µM [rising, full curve].
For `COc1ccccc1-c1ccc2ncnc(NCc3ccccc3)c2c1`, the AC50 was 10 µM [rising, partial curve].
In the case of `COC(=O)[C@@]1(Cc2ccc(F)cc2)[C@H]2c3cc(C(=O)N(C)C)n(Cc4ccsc4Br)c3C[C@H]2CN1C(=O)c1ccccc1`, the AC50 was 12.6 µM [rising, single point].
In the case of `COCCn1c(C(=O)N2CCCC2)cc2c1C[C@H]1CN(C(=O)c3ccccc3)[C@@](Cc3ccccc3)(C(=O)OC)[C@@H]21`, the AC50 was 10 µM [rising, single point].
In the case of `COC(=O)[C@@]1(Cc2ccc(OC)cc2)[C@H]2c3cc(C(=O)N4CCCC4)n(CCc4ccc(OC)c(Br)c4)c3C[C@H]2CN1C(=O)c1ccccc1`, the AC50 was 12.6 µM [rising, single point].
